# These are yes or no findings as the source states them, for the method shown. In cells and extracts the contact can be indirect. Some binding calls cover weakened binding; strength is not graded here.
# The chains behind the UniProt entries cited, without tags or fusion partners. Where a name states a change or a piece, a line headed by the entry shows the natural chain unless it says otherwise.
# UniProt Q8VBX6: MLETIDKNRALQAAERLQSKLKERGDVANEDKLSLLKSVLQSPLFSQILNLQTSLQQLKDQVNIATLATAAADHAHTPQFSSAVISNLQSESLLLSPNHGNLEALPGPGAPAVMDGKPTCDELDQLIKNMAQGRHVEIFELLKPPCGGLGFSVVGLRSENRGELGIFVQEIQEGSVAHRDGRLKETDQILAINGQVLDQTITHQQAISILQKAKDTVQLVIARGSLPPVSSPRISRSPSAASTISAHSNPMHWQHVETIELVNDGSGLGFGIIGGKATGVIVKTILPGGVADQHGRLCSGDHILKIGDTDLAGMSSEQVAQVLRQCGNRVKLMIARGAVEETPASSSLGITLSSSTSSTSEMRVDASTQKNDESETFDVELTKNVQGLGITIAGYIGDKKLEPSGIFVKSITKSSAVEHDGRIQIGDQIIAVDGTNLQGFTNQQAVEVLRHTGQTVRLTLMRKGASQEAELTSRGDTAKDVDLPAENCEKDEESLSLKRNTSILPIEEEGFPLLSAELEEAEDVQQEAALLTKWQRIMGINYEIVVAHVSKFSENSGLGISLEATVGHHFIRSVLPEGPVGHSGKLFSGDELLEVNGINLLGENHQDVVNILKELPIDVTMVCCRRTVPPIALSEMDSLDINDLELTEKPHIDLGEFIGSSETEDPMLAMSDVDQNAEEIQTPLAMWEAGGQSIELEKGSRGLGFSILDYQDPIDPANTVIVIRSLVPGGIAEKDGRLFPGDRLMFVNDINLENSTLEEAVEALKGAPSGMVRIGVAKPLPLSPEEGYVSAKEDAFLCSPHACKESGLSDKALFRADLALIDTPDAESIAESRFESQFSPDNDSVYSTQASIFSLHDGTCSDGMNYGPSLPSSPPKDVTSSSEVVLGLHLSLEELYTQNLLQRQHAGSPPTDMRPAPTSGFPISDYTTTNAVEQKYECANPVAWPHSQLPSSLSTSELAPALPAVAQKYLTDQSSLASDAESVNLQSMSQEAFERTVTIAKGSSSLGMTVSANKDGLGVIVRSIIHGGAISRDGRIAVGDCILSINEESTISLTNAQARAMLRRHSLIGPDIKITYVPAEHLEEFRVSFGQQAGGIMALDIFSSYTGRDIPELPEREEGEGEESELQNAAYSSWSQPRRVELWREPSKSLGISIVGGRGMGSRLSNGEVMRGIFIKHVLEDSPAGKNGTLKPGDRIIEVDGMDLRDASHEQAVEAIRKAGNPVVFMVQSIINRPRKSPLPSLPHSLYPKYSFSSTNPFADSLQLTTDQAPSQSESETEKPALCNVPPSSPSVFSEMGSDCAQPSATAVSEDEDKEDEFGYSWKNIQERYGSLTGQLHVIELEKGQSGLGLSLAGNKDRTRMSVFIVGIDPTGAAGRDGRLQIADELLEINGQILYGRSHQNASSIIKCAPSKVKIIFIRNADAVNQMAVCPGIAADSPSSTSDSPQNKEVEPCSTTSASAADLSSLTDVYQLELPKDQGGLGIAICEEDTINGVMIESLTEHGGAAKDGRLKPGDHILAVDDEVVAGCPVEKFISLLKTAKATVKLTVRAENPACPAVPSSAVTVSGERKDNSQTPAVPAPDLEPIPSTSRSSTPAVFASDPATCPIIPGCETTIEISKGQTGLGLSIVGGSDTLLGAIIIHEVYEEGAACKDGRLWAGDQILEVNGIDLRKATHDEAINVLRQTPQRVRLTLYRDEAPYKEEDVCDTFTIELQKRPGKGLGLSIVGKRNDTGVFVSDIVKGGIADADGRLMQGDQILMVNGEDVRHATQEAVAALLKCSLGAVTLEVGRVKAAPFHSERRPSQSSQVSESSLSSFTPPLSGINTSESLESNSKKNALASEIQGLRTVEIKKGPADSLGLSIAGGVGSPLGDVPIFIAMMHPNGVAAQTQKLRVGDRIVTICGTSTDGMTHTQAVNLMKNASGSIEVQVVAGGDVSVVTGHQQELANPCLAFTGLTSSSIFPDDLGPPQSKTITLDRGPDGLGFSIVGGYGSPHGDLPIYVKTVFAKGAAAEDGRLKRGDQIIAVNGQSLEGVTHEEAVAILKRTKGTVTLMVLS
# UniProt P46937: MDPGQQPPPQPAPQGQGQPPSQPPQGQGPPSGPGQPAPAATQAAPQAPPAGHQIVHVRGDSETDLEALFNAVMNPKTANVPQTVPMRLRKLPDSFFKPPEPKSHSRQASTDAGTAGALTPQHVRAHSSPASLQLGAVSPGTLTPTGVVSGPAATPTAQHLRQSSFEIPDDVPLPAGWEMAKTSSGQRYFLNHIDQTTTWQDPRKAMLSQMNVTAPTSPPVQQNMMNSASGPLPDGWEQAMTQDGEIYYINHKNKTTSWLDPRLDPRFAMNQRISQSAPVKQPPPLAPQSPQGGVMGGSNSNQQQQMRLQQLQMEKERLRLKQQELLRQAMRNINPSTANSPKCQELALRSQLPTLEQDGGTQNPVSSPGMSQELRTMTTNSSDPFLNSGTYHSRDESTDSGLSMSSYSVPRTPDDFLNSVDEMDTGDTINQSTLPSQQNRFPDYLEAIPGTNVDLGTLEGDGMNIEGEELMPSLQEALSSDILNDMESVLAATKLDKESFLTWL
# Biological target: multiple PDZ domain protein (MPDZ) (mouse) (UniProt Q8VBX6)
# Test: co-immunoprecipitation with anti-FLAG beads, anti-MUPP1/MPDZ immunoblot
substance,measurement,value
Flag-tagged YAP6SA (from UniProt P46937 1-504),binding,binds
